# Assay results taken from paper PMC12040169 (PLOS Biology, 2025).
# This is one part of the list.
# System: T1, CTL2-GFP (C. trachomatis L2/434/Bu, GFP-expressing)
# T1 construct: L2/434/Bu, GFP-expressing
# Design: species or system HeLa; Intracellular C. trachomatis growth in HeLa cells, bulk GFP fluorescence relative to DMSO
# Settings: bulk GFP, single well; 28.5 h, 10 µM; inhibitor
row,SMILES,% of control remaining
1,COc1cc2c(cc1NC(=O)c1cc(-c3cccnc3)nc3ccc(C)cc13)oc1ccccc12 [CBK267722],109.279%
2,CCC(=O)NNC(=O)c1cc(O)nc2ccccc12 [CBK263495],117.163%
3,CC(C)S(=O)(=O)CC(=O)Nc1ccc(C(=O)O)cc1 [CBK020001],121.276%
4,O=C(Nc1ccc(NC(=O)c2ccco2)cc1)c1ccc(N2CCOCC2)c([N+](=O)[O-])c1 [CBK268739],120.483%
5,O=C(C1CCCC1)N1CCCC1c1nnc(-c2ccsc2)o1 (stereo not drawn) [CBK285506],133.553%
6,O=C(NCc1ccncc1)Nc1ccc([N+](=O)[O-])cc1 [CBK264319],136.164%
7,Cc1cc(Br)ccc1OCC(=O)O/N=C(\N)Cc1ccc([N+](=O)[O-])cc1 [CBK265095],115.185%
8,O=C(COc1ccc2ccccc2c1)N1CCN(S(=O)(=O)c2ccccc2[N+](=O)[O-])CC1 [CBK264271],134.143%
9,COc1ccccc1CCCN1CCC2(C1)NCCc1c2[nH]c2ccccc12 (stereo not drawn) [CBK040257],204.817%
10,COc1ccc2[nH]c3c(c2c1)CCN[C@]31CCN(CCOc2ccc(F)cc2)C1 [CBK089876T],134.787%
11,CCCOc1ccc(C(=O)N2CCN(c3ccccc3)CC2)cc1 [CBK304327],78.5691%
12,O=C(Cn1ccnc1)Nc1ccccc1Oc1ccc(F)cc1 [CBK281455],110.383%
13,CCCCn1c(SCC(O)COCc2ccc(OC)c(OC)c2)n[nH]c1=O (stereo not drawn) [CBK296653],135.023%
14,O=C(Cc1csc(-c2ccc(Cl)cc2)n1)NCCN1CCCC1 [CBK107306],100%
15,O=S(=O)(Nc1nnc(C(F)(F)F)s1)c1ccc(Br)cc1 [CBK200047],123.076%
16,CCC1CCC2(CC1)NC(=O)N(CC(=O)Nc1nccs1)C2=O (stereo not drawn) [CBK305936],100.954%
17,O=C(O)C1(Oc2ccc3ncccc3c2)CCN(Cc2ccoc2)CC1 [CBK307598],119.246%
18,OCCCNC(=S)NCCc1ccccc1 [CBK264869],120.796%
19,CN(C)C(=O)CN1C(=O)N2CCN=C2c2ccccc21 [CBK283961],115.906%
20,CCOC(=O)c1c(/N=C/c2cc(I)cc(I)c2O)sc2c1CCN(Cc1ccccc1)C2 [CBK262246],83.2427%
21,CCOC(=O)NC(Nc1nc2ccccc2s1)(C(F)(F)F)C(F)(F)F [CBK008913],87.2577%
22,Cc1c(C(=O)O)sc(S(=O)(=O)N2CCN(C(=O)Cc3ccccc3Cl)CC2)c1C(=O)O [CBK297137],129.347%
23,COc1ccc([C@@]23CCC(N)C[C@@H]2N(C)CC3)cc1OC (stereo partly drawn) [CBK003576],112.807%
24,CCCNC(CC(=O)Nc1ccccc1)C(=O)O (stereo not drawn) [CBK266819],134.681%
25,Cc1cc(C)cc(NC(=O)CC2Sc3ccccc3NC2=O)c1 (stereo not drawn) [CBK266384],196.596%
26,O=C(O)COc1cccc2ccccc12 [CBK218704],129.1%

row,SMILES,% of control remaining
1,CCC1CCc2c(sc(NC(=O)C3C4CCC(C4=C(C)C)C3C(=O)O)c2C(=O)OC)C1 (stereo not drawn) [CBK265424],111.746%
2,O=C(O)COc1ccc(-c2nnn(CC(=O)O)n2)cc1 [CBK267124],181.06%
3,c1ccc2c(c1)OCC(COc1ccnc(N3CCCN(CC4CCCCC4)CC3)n1)O2 (stereo not drawn) [CBK083982],115.29%
4,Nc1ncc(-c2cccc(C(=O)O)c2)nc1N1CCOCC1 [CBK063415],160.634%
5,CCCC/C=C/c1cncc(NCc2cccc(Cl)c2)n1 [CBK065293],146.961%
6,CCn1c2cc(C)sc2c2cnn(CC(=O)OC)c(=O)c21 [CBK284186],115.458%
7,O=C(O)Cc1ccc(-n2c(S)nnc2-c2ccncc2)cc1 [CBK268860],172.785%
8,Cc1cc(C)n(-c2cccc(CN3CCC(CO)C3)c2)n1 (stereo not drawn) [CBK282928],108.315%
9,O=C1CC(Nc2ccc(N3CCOCC3)cc2)C(=O)N1CCc1ccccc1 (stereo not drawn) [CBK269339],66.0257%
10,Oc1cccc(/C=N/c2ccc(Cc3ccc(/N=C/c4cccc(O)c4)cc3)cc2)c1 [CBK261230],103.983%
11,O=C(Nc1cccc2ccccc12)O[C@@H]1CO[C@H]2[C@@H]1OC[C@@H]2NC(=O)c1cccs1 [CBK289468],96.8318%
12,Cc1cc2nc(NCC3CCCO3)c3ccccc3n2n1 (stereo not drawn) [CBK305871],162.704%
13,CC(=O)NC(c1ccccn1)C1CCN(C(=O)C2CCCCC2)CC1 (stereo not drawn) [CBK285049],131.607%
14,Cc1ccccc1CCNC(=O)c1cccn(CC(=O)N(C)C2CCCCC2)c1=O [CBK286028],87.8915%
15,CC(C)(C)C(=O)N1CC[C@H]2NC(=O)N(c3ccc(F)cc3)C(=O)[C@H]21 [CBK289328],124.177%
16,CCC(C)(C)N1CC(=O)N=C1NCCc1ccc(S(N)(=O)=O)cc1 [CBK007750],149.062%
17,COc1ccc(-c2cc(C(=O)OCc3ccccn3)c3ccccc3n2)cc1 [CBK296114],121.33%
18,O=S(=O)(c1cccc(C(F)(F)F)c1)n1ccc2c(CN3CCCC3)cccc21 [CBK116168T],89.4076%
19,CN(Cc1ccccc1)c1nc2ccccn2c(=O)c1/C=C1/SC(=S)N(CCc2ccccc2)C1=O [CBK263839],136.765%
20,CN(C)c1ncc(-c2ccc(F)cc2)c(C2CCCN2C(=O)c2nccc3ccccc23)n1 (stereo not drawn) [CBK286086],108.814%
21,CS(=O)(=O)c1ccc(-c2ccc(COC3CCN(C(=O)CCCc4ccc(F)cc4)CC3)cn2)cc1 [CBK162229T],93.8837%
22,Cc1ccc(CN2CCCC3(C/C=C/COc4ccccc4C(=O)NCCNC3=O)C2)cn1 (stereo not drawn) [CBK292022],128.984%
23,Cc1ccc(Cc2cnc(NC(=O)C3CCCO3)s2)cc1Cl (stereo not drawn) [CBK305013],135.824%
24,COc1ccc(-c2cc(C(=O)Nc3ccc(O)cc3)cnc2-c2ccc(F)cc2)cc1 [CBK038026],143.778%
25,c1ccc(CNc2nc(-c3ccco3)cn3ccnc23)nc1 [CBK037482],95.7495%
26,COc1ccc(C(NC(=O)c2cc(C)oc2CN2CCCC2)c2ccccc2)cc1 (stereo not drawn) [CBK285573],81.7067%

row,SMILES,% of control remaining
1,C=C(C)Cn1c(SC(C)C)nnc1-c1ccccc1OC [CBK200072],128.756%
2,CCCS(=O)(=O)NC1CC(C)(C)Cc2c1cnn2-c1ccc(F)cc1 (stereo not drawn) [CBK306770],97.3908%
3,COc1cccc(CNc2nccnc2-c2ccoc2)c1OC [CBK036782],236.523%
4,O=C(CC1CC1)Nc1snnc1-c1ccc(Cl)cc1 [CBK153239],102.694%
5,O=C(O)CCc1nn2c3ccccc3nc2n(-c2ccccc2)c1=O [CBK267520],131.837%
6,CC(C)NC(=O)c1ccc(Cl)cc1 [CBK015665],112.631%
7,O=C(NCc1ccc(Cl)c(Cl)c1)N1CCN(Cc2ccccc2)CC1 [CBK155624],121.274%
8,COc1ccc(CCNC(=O)CSc2nc(N)c3c4c(sc3n2)CCCC4)cc1 [CBK095784],106.231%
9,O=C(Cc1ccccc1)N1C[C@@H]2CCCCN(CC3CC3)[C@@H]2C1 [CBK285497],108.647%
10,CCN(c1ccccc1)S(=O)(=O)c1ccc(C(=O)NC(C)c2ccc3c(c2)OCCO3)cc1 (stereo not drawn) [CBK296945],124.028%
11,COc1ccccc1-c1coc2cc(OC(=O)c3c(C)oc4ccc(OC(C)=O)cc34)ccc2c1=O [CBK265191],112.957%
12,O=C1c2ccc3c4c(ccc(c24)C(=O)N1c1ccncc1)C(=O)N(c1ccncc1)C3=O [CBK261390],69.8724%
13,Cc1noc(C)c1NC(=O)c1nc2ccccc2[nH]1 [CBK200315],135.231%
14,Cn1ccnc1CN1C(=O)CO[C@H]2CN(Cc3ccc4c(c3)OCO4)C[C@H]21 [CBK289665],152.831%
15,NC(=O)CSc1ccccc1 [CBK010649],134.422%
16,CN1CCN(CCC(=O)N2CCN(C(=O)c3ccco3)CC2)CC1 [CBK144481],106.63%
17,O=C1N=C(NC2CCCCCC2)SC1CC(=O)N(Cc1ccccc1)c1ccccc1 (stereo not drawn) [CBK067394],112.4%
18,COc1cc(CN2CCC(C(=O)c3ccc(F)cc3)CC2)cc(OC)c1OC [CBK149112],98.4641%
19,CCN1CCN(C(=O)c2nccnc2C(=O)O)CC1 [CBK286718],112.57%
20,Sc1nnc(-c2cccc(Br)c2)o1 [CBK288432],119.454%
21,CC(=O)Nc1ccc(OC(=O)CSc2nc(C)cc(-c3ccccc3)n2)cc1 [CBK268754],136.423%
22,CN(C)CCCN(Cc1ccco1)Cc1c[nH]nc1-c1cccs1 [CBK283198],101.093%
23,Cc1ccc(-c2ccccc2CC2(C(=O)Nc3ccc(C(N)=O)cc3)CCOCC2)c(C)c1 [CBK286422],139.795%
24,CCCn1nnn(-c2cc(OCCOCC)c(Cl)cc2Cl)c1=O [CBK026016],155.045%
25,O=S(=O)(c1ccc(N2CCNCC2)cc1)n1ccc2ccc(Br)cc21 [CBK034034C],24.7677%
26,COc1cc(-c2nc3ncccc3cc2NC(=O)C(C)C)cc(OC)c1OC [CBK073661],99.0939%
